This is one part of the list.
Tested on: T1, CTL2-GFP (C. trachomatis L2/434/Bu, GFP-expressing)
T1 construct: L2/434/Bu, GFP-expressing
Set-up: species or system HeLa; Intracellular C. trachomatis growth in HeLa cells, bulk GFP fluorescence relative to DMSO
Conditions: bulk GFP, single well; 28.5 h, 10 µM; inhibitor

SMILES	% of control remaining [%]
O=C1c2cc(-c3nc(-c4ccccc4)[nH]c3-c3ccccc3)ccc2-c2ccc([N+](=O)[O-])cc21 [CBK262613]	100
CCc1ccc(CC)c(S(=O)(=O)NC(CC(=O)O)c2ccccc2)c1 (stereo not drawn) [CBK266208]	134.927
CCOc1ccc2c(c1)CN(CCCc1nc(C)no1)CC2 [CBK305076]	104.496
NC(=O)c1ccc(-c2cncc(NCc3ccco3)n2)cc1 [CBK065383]	107.649
O=C(CSc1nc(=O)cc(O)[nH]1)c1ccccc1 [CBK026570]	138.124
CCCSc1cc(=O)oc2ccccc12 [CBK017493]	93.5109
COc1cccc(C(=O)N2CC=C[C@H]2C(=O)NC2CC2)c1 [CBK284278]	57.7312
O=S(=O)(c1ccc(-c2ccc(S(=O)(=O)N3CCCCC3)cc2)cc1)N1CCCCC1 [CBK261257]	102.226
COc1cccc(CC(=O)N2CCCC(c3cc4ncccc4[nH]3)C2)c1 (stereo not drawn) [CBK283426]	140.159
NC(=O)c1ccc(NC(=O)COc2ccc3ccccc3c2)cc1 [CBK263738]	124.083
O=C(NCc1cccc2ccccc12)N1CCN(Cc2ccccc2)CC1 [CBK155628]	127.647
CCn1cc(CN2C3CCC2CC(O)(c2ccc(F)cc2)C3)cn1 (stereo not drawn) [CBK282741]	144.584
O=C(NC(C(=O)N/N=C/c1ccc(O)cc1)c1n[nH]c(=O)c2ccccc12)c1ccccc1 (stereo not drawn) [CBK262839]	93.1756
CC(C)Cn1c(=O)[nH]c2ncc(-c3ccc(C(=O)NC4CCCC4)cc3)nc21 [CBK064551]	169.187
NCC1CCN(c2nc(-c3cc(C(F)(F)F)cc(C(F)(F)F)c3)cnc2N)CC1 [CBK063960]	175.421
NCCNc1ccc([N+](=O)[O-])c(NCc2ccccc2)c1 [CBK262757C]	84.8158
Cc1ccc(NC(=O)c2c[nH]c(=O)[nH]c2=O)cc1 [CBK113246]	128.857
Cc1cccc([C@H]2CN(C(=O)C3CCCC3)[C@@H]3CCN(C4CCCC4)C[C@H]23)c1 [CBK285529]	107.586
COc1ccc(C(C)NC(=O)C2CCCCC2C(=O)O)cc1OC (stereo not drawn) [CBK270309]	128.713
c1cc(-c2nccnc2NCC2CCCCC2)ccn1 [CBK037627]	125.044
CC(=O)Nc1nc(-c2ccc(Cl)s2)cs1 [CBK287317]	165.407
[O-][n+]1c2c([n+]([O-])c3c1CCCC3)CCCC2 [CBK261714]	113.485
Cn1ccnc1[S+]([O-])Cc1nc2ccccc2s1 (stereo not drawn) [CBK005549]	108.317
O=C(CC1CCN(Cc2cccc(C(F)(F)F)c2)CC1)N(Cc1ccccn1)C1CC1 [CBK286494]	100.914
c1ccc2c(c1)OCC(COc1nccnc1OC1CCN(CC3CC3)CC1)O2 (stereo not drawn) [CBK083001T]	108.608
CCC(CO)NC(=O)C1(Cc2ccc(-c3cc(C)cc(C)c3)cc2)CCOCC1 (stereo not drawn) [CBK286522]	131.258

In the list so far, three contain fluorine:
SMILES	% of control remaining [%]
CCn1cc(CN2C3CCC2CC(O)(c2ccc(F)cc2)C3)cn1 (stereo not drawn) [CBK282741]	144.584
NCC1CCN(c2nc(-c3cc(C(F)(F)F)cc(C(F)(F)F)c3)cnc2N)CC1 [CBK063960]	175.421
O=C(CC1CCN(Cc2cccc(C(F)(F)F)c2)CC1)N(Cc1ccccn1)C1CC1 [CBK286494]	100.914

(list continues)

SMILES	% of control remaining [%]
O=C(Cc1ccc(F)cc1)N1CC[C@@H](c2ccccc2)[C@H](O)C1 [CBK283714]	137.313
Cc1cc(NC(=O)C(C)SCc2cccc(C(F)(F)F)c2)no1 (stereo not drawn) [CBK306233]	182.12
CC(C)(C)c1cc(NC(=O)Cn2nc(C(=O)O)c3ccccc3c2=O)n(-c2ccccc2)n1 [CBK297557]	147.75
O=C(O)c1ccc(S(=O)(=O)c2ccc3c(c2)C(=O)N(c2ccccc2-c2ccccc2)C3=O)cc1 [CBK262760]	92.1508
CCOc1ccsc1C(=O)N1CCC(Cc2ccccc2)CC1 [CBK200186]	92.79
CCOc1ccc(-c2cc(C(=O)NCc3cc(OC)ccc3OC)n[nH]2)cc1 [CBK288116]	137.31
COc1ccc(-c2cnc(N)c(-c3ccc(F)c(Cl)c3)n2)cn1 [CBK063966]	116.557
O=C(Cn1cc(C(=O)NCC2(c3ccccc3)CCCC2)ccc1=O)NC1CCCC1 [CBK286040]	130.198
CCN(CC(=O)NCc1ccncc1)S(=O)(=O)c1ccccc1 [CBK269537]	156.561
CC(C)(C)CC(C)(C)Nc1nc(N)nc(N)n1 [CBK022832]	119.221
O=C(CSc1nnc(CN2CCOCC2)n1-c1ccc(Cl)cc1)N1c2ccccc2SC2C=CC=CC21 (stereo not drawn) [CBK268820]	120.416
CC1COCC(C)N1c1ccc2nnc(-c3ccc(C(F)(F)F)cc3)n2n1 (stereo not drawn) [CBK009548]	139.246
Cn1ncc2c(=O)n(Cc3nnsc3Cl)cnc21 [CBK237374]	126.202
CN(C)CCCC(=O)Nc1ccc2[nH]ccc2c1 [CBK159698]	109.023
O=C(CN1CCCC[C@H]2CN(C(=O)c3cccs3)C[C@H]21)NC1CC1 [CBK285504]	98.7599
Cc1ccc(-n2c(SCC(=O)Nc3ccccc3F)nnc2-c2ccccc2O)c(C)c1 [CBK268905]	122.939
Fc1ccc(OCCNCC2NCCc3c2[nH]c2ccccc32)cc1 (stereo not drawn) [CBK066972]	100
O=C(N1CCOCC1)N1CCN(c2cncc(-c3ccc(O)cc3)n2)CC1 [CBK126946T]	124.483
COc1ccc(/N=C2\S[C@H]3[C@H]([C@@H](O)[C@H](O)C[C@@H]3C(N)=O)N2Cc2ccc(F)cc2)cc1 [CBK288942]	125.942
CCC(CN1CCCC1)NC(=O)C1(c2ccccc2)CCOCC1 (stereo not drawn) [CBK282758]	126.547
O=C(Nc1cncc(OC2CCNCC2)n1)c1ccoc1 [CBK036366T]	120.431
COc1ccc(CN2CCC(N3CCCCCC3)CC2)cc1OC [CBK264721G]	100
Cc1cnc(NC(=O)c2ncoc2-c2cccs2)s1 [CBK283977]	112.791
Clc1cc(Cl)cc(-c2cn3ccnc3c(NCc3ccncc3)n2)c1 [CBK066664]	189.807
O=[N+]([O-])c1cc2c(cc1C1NN=C(c3ccccc3)S1)OCO2 (stereo not drawn) [CBK262540]	102.832
CCc1ccc(-n2nc3ccc(NC(=S)NC(=O)c4cc5ccccc5o4)cc3n2)cc1 [CBK264258]	100

SMILES	% of control remaining [%]
COc1ccc(C2=NN(C(=O)CCC(=O)O)C(c3cccs3)C2)cc1OC (stereo not drawn) [CBK266656]	94.7431
COC(=O)[C@@H](C)NC(=O)[C@@H]1CN(S(C)(=O)=O)CCN1C(=O)c1cccs1 [CBK289623]	143.46
O=C(c1ccncc1)N1C[C@H]2CCc3c(n[nH]c3C(F)(F)F)[C@H]2C1 [CBK282110]	151.357
COc1ccc(CN2CCC(N3CCCCC3)CC2)c(OC)c1 [CBK261848]	100
CC(C)C(=O)N1CCCC(n2nc(-c3cccs3)ccc2=O)C1 (stereo not drawn) [CBK284038]	107.911
O=C(CNS(=O)(=O)c1ccc(F)cc1)N1CCOCC1 [CBK042214]	118.747
CCCCc1cc(C[C@@H]2C[C@H](NS(C)(=O)=O)C2(C)C)no1 [CBK289702]	160.022
Nc1nc(SCCCC(=O)NC2CCCCC2)nc2sc3c(c12)CCCC3 [CBK266176]	128.111
CN(C)C(=O)CSc1nc2cc(Cl)ccc2c(=O)n1CC1CCCO1 (stereo not drawn) [CBK305932]	119.143
O=C(NCCc1cccs1)NCc1cc(F)ccc1F [CBK045363]	117.059
Cc1cc(CC(=O)N2CCC(Cn3cncn3)(C3CCCCC3)CC2)on1 [CBK136795]	100
CC1=C[C@@H](CNC(=O)c2ccccn2)[C@H](C(C)C)C[C@H]1CC(=O)O [CBK289212]	127.032
COc1ccnc(N2CCCN(CCc3ccc(OC)c(OC)c3)CC2)n1 [CBK084002]	129.909
COc1ccc2cc(OCCO)ccc2c1 [CBK176054]	144.776
O=C(CC1CCN(Cc2ccccn2)CC1)NCC1(c2ccccc2)CCCC1 [CBK285959]	137.504
CCn1c(C(O)c2ccc(OC)c(OC)c2)nc2ccccc21 (stereo not drawn) [CBK262974]	125.367
Cc1ccc(OCC(=O)O/N=C(\N)Cc2ccc([N+](=O)[O-])cc2)c(C)c1 [CBK263102]	113.882
CC1CCc2c(sc3ncnc(NCC(=O)N4CCCC4)c23)C1 (stereo not drawn) [CBK306079]	138.465
CN(C)S(=O)(=O)CCNC(=O)c1ccc(-c2ccccc2CO)cc1 [CBK306773]	113.297
O=C1NC2(CCN(C(=O)Cc3c(F)ccc(F)c3F)CC2)Oc2ccc(-c3ccoc3)cc21 [CBK115848]	105.677
Cn1ccnc1C1(O)C2CCCC1CN(CC1CCCCC1)C2 (stereo not drawn) [CBK285220]	152.454
O=C1NCC2(C/C=C/CCOc3ccccc31)CCN(C(=O)CCc1ccccc1)CC2 [CBK292017]	129.416
O=C(Cn1cncn1)c1ccc2c(c1)CCO2 [CBK020087]	106.781
COc1cc(Nc2cc(-c3ccccc3N(C)C)ncn2)cc(OC)c1OC [CBK090702]	138.007
COC(=O)[C@H]1Cc2cc3c(cc2[C@H]1c1cc(OC)c(OC)c(OC)c1)OCO3 [CBK200105]	65.4029
Cn1ccnc1C1(O)CCN(C(=O)Nc2cccc(F)c2)CC1 [CBK282279]	123.583
